{
  "source": "patent US20150291597A1",
  "about": "“NOVEL ORALLY BIOAVAILABLE BREATHING CONTROL MODULATING COMPOUNDS, AND METHODS OF USING SAME” (Galleon Pharmaceuticals, Inc., priority 2012, published 2015)",
  "test_system": "rats chronically treated with morphine",
  "test": "Apnea, sleep architecture and ventilatory response in rats chronically treated with morphine",
  "type": "in vivo, Adult male lean Zucker rats",
  "settings": "7 mg/kg PO, versus vehicle, hydrogen sulfate",
  "protocol": "The objective of this study was to quantify the effects of select compounds of this invention on apnea, ventilation and sleep structure in a rat model. The study consisted of two treatment conditions: (1) chronic morphine and test compound, such as Compound 5b administered orally (7 mg/kg, PO), and (2) chronic morphine and oral vehicle. Adult male lean Zucker rats were anesthetized for electroencephalogram (EEG) and electromyogram (EMG) telemeter implantation. At least 1 week was permitted post-surgery before animals were used further. Morphine sulfate was added to the drinking water of singly housed rats beginning with 0.1 mg/ml morphine and increasing the concentration in increments so that a final concentration of 0.6 mg/ml was achieved within 2 weeks. […] Minute volume and the number of central sleep apneas (CSA) were measured during all treatment conditions. […]\nCompound 5b (7 mg/kg) or an equivalent volume of vehicle was administered via an oral gavage tube at 12 pm. […] Breathing data during wakefulness was not analyzed because movement prevents measurement of accurate volumes when using whole-body plethysmography. When differences were detected with ANOVA, Student-Neuman-Keuls post hoc tests were run for all main effects and interactions. […] Values are expressed as means±SE.",
  "note": "“Also recorded” adds a separate entry of the source. Where a name gives a salt, the structure may show the parent alone.",
  "data": [
    {"smiles": "C#CCNc1nc(NCCC)nc(N(C)OC)n1", "note": "[Compound 5b, O,N-Dimethyl-N-[4-(n-propylamino)-6-(prop-2-ynylamino)-[1,3,5]triazin-2-yl]-hydroxylamine hydrogen sulfate]", "values": [
      {"measurement": "percent time spent in NREM sleep", "value": "No differences were observed; also recorded: no visible effect; also recorded: does alter time spent in NREM"},
      {"measurement": "percent time spent in REM sleep", "value": "no visible effect; also recorded: does not alter"}
    ]}
  ]
}
